# Measured values from paper PMC12462935.
# By UniProt entry, the sequences of proteins in these tests, tags left out. Where a name states a change or a piece, a line headed by the entry shows the natural chain unless it says otherwise.
# UniProt P15923: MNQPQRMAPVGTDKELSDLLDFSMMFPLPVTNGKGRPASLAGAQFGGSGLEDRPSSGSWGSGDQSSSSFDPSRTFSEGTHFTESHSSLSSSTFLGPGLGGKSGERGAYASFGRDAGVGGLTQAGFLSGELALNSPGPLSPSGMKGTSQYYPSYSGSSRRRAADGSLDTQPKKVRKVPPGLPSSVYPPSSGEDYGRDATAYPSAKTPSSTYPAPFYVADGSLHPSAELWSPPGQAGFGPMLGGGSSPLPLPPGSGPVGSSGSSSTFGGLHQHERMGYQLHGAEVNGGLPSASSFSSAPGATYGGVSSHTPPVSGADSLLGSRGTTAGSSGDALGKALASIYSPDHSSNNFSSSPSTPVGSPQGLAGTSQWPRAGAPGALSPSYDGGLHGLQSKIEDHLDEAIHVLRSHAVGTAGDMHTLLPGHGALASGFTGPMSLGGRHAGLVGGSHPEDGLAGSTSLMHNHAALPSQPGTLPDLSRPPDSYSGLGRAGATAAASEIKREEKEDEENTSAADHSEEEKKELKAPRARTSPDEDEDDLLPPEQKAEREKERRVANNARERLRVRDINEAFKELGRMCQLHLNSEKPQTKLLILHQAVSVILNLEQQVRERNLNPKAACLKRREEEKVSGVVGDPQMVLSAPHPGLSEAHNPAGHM
# UniProt P15884: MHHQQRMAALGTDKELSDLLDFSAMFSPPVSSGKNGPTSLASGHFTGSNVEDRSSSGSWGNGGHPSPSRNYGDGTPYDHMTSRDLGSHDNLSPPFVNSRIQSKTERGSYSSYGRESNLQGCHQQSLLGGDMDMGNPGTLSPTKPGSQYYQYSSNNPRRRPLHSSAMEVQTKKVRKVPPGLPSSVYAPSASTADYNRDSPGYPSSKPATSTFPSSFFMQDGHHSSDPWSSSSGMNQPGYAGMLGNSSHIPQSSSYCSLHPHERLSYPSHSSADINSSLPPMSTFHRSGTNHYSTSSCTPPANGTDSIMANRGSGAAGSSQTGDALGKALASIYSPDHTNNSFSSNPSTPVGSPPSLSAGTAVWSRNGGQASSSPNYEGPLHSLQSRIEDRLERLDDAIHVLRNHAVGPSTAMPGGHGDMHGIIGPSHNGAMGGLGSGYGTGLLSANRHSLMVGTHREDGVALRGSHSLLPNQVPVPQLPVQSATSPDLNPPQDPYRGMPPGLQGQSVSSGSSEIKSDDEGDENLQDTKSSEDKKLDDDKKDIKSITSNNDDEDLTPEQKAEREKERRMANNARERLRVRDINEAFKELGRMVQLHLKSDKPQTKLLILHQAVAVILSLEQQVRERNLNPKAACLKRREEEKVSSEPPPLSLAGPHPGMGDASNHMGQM
# UniProt P19474: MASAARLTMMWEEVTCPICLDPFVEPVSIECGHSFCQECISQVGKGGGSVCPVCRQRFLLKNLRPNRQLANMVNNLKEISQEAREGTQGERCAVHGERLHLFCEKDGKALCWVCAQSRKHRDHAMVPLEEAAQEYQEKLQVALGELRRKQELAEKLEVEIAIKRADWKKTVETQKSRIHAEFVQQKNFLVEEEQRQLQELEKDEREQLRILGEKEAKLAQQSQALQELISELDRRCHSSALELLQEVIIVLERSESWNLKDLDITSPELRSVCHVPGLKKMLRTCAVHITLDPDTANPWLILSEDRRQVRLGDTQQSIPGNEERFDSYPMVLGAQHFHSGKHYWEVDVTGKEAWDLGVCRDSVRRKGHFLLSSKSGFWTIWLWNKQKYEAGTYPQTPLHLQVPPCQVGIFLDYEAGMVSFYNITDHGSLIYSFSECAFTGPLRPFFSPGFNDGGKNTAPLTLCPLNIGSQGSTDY
# No constants are given. Whether binding was seen depends on the method and setting. Binding seen in cells or lysates may run through a third protein. Some binding calls cover weakened binding; strength is not graded here. For some assays here: Tags and fused reporters may be left off the sequences shown.
# Columns and labels:
# Myc-ID1 [1] = biological target: T1, Myc-ID1 (UniProt P41134); assay: co-IP; HEK293T cells co-transfected with tagged constructs (for ID1 with TCF3, TCF4 or TCF12: with TRIM21 or control vector); MG132 20 µM 6 h, lysates with primary antibodies and protein A/G magnetic beads overnight at 4 °C, immunoblot
# T1 sequence: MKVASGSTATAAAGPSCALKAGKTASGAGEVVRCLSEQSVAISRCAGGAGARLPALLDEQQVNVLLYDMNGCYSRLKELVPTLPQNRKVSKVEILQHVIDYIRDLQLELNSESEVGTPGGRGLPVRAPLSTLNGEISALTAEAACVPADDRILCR
# [2] = biological target: T2, ID1 (endogenous) (human (endogenous in KYSE30 and KYSE450)) (UniProt P41134); assay: co-IP; endogenous proteins in KYSE30 and KYSE450 cells; anti-TRIM21 or anti-ID1 antibody for TRIM21 with ID1; for TCF12 with ID1 cells treated with 5 µM Sorafenib or not; MG132 20 µM 6 h, protein A/G magnetic beads, immunoblot
# T2 sequence: T1 sequence
# Myc-ID1 [3] = biological target: T1, Myc-ID1; assay: co-IP; truncated constructs of ID1 (pEBG-GST) tested with TRIM21 and truncated constructs of TRIM21 (pcDNA3) tested with ID1; cells not given
binding (Myc-ID1 [1]),Substance,also measured
binds,Flag-TCF3 (from UniProt P15923 1-654),–
binds,Flag-TCF4 (from UniProt P15884 1-667),–
binds,Flag-TRIM21 (from UniProt P19474 1-475) (enzyme),–
–,TRIM21 (endogenous) (from UniProt P19474 1-475) (enzyme),binding [2]: binds
–,TRIM21#3 (B30.2/SPRY domain) (from UniProt P19474 268-465) (domain or fragment),binding (Myc-ID1 [3]): binds
